Values of other authors, collected in US20060122275A1, “Agentfor reducing side effects of diclofenac” (priority 2002, published 2006).
For at least one compound, name, drawing or mass did not settle the structure.

Tests used:
[1] = test system: gastrointestinal mucous membrane; details: stated in words, no test described; cited from earlier work
acid secretion = details: stated in words, no test described; cited from earlier work

SMILES: CCCCC(C)(O)C/C=C/[C@H]1[C@H](O)CC(=O)[C@@H]1CCCCCCC(=O)OC (mixture of isomers) [misoprostol]
- Site protection activity [1]: weak
- Acid secretion inhibitory activity (acid secretion): strong
